Laboratory results: PubChem BioAssay AID1259290 (Sanger Institute, 2017)
The deposit covers 794 reagents; below is an unselected part. 9 of all reagents (1.1%) count as active. 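Calls rest on knock-down alone, not drug synergy; synergy above 0.15 was grouped apart and does not affect calls.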 Further read-outs or replicates are left out here. No sequences are given here. Not stated in the record: the amount of reagent, the time to read-out.

Screen: 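Identify kinases needed for colorectal cancer cell survival, with or without anchor drugs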 (primary screen)
Cell system: human SNUC1 colorectal cancer cells
Knock-down reagent: siRNA pool against human genes
Conditions: anchor drugs BYL719 1 µM, cetuximab 5 µg/ml or trametinib 10 nM, or DMSO vehicle alone
Measured: 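Viability averaged over replicates and scaled to non-targeting siRNA, robust z-score with no drug, and synergy scores by drug for BYL719, cetuximab and trametinib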
Reading the numbers: viability z-score, siRNA alone: higher = more viable cells; low values mean essential gene
Rule for the call: 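Essential when the robust viability z-score with siRNA alone falls below -3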
Meaning of the calls: active = essential: knock-down alone cut viability (z below -3); inactive = no clear viability loss with knock-down alone

After knock-down of KRAS (KRas proto-oncogene, GTPase), the screen gave viability z-score, siRNA alone 0.00802; inactive.
CLK2 (CDC like kinase 2) gave viability z-score, siRNA alone 0.936; inactive.
Against TESK2 (testis associated actin remodelling kinase 2), the entry reads viability z-score, siRNA alone -1.02; inactive.
EPHB6 (EPH receptor B6) scored viability z-score, siRNA alone 0.292; inactive.
Against KMT2B (lysine methyltransferase 2B), the entry reads viability z-score, siRNA alone 0.936; inactive.
Knock-down of PIK3CB came out at: viability z-score, siRNA alone 0.936; inactive.
Silencing of PTK2B (protein tyrosine kinase 2 beta) came out at: viability z-score, siRNA alone -1.06; inactive.
For CDKN1A (cyclin dependent kinase inhibitor 1A), the entry reads viability z-score, siRNA alone 0.162; inactive.
For PKLR (pyruvate kinase L/R), the entry reads viability z-score, siRNA alone 0.936; inactive.
Silencing of STK11 (serine/threonine kinase 11) gave: viability z-score, siRNA alone -1.18; inactive.
After knock-down of BRD2 (bromodomain containing 2), the record shows viability z-score, siRNA alone 0.256; inactive.
CASK (calcium/calmodulin dependent serine protein kinase) showed viability z-score, siRNA alone 0.416; inactive.

Records above whose gene name starts with C or c (3):
CLK2 (CDC like kinase 2) | viability z-score, siRNA alone = 0.936; call = inactive
CDKN1A (cyclin dependent kinase inhibitor 1A) | viability z-score, siRNA alone = 0.162; call = inactive
CASK (calcium/calmodulin dependent serine protein kinase) | viability z-score, siRNA alone = 0.416; call = inactive

Continued.
For KHK (ketohexokinase) the deposit lists viability z-score, siRNA alone -0.774; inactive.
NR4A2 (nuclear receptor subfamily 4 group A member 2) scored viability z-score, siRNA alone -0.55; inactive.
CEP290 (centrosomal protein 290) showed viability z-score, siRNA alone -0.404; inactive.
PFKFB1 (6-phosphofructo-2-kinase/fructose-2,6-biphosphatase 1) gave viability z-score, siRNA alone -0.0859; inactive.
With knock-down of PRKD2 (protein kinase D2), the screen gave viability z-score, siRNA alone -3.72; active.
GRK5 (G protein-coupled receptor kinase 5) scored viability z-score, siRNA alone 0.936; inactive.
CAMKV (CaM kinase like vesicle associated) scored viability z-score, siRNA alone 0.936; inactive.
With knock-down of SBK1 (SH3 domain binding kinase 1), the record shows viability z-score, siRNA alone 0.928; inactive.
With knock-down of FGFR4 (fibroblast growth factor receptor 4), the screen gave viability z-score, siRNA alone -1.43; inactive.
After knock-down of SRP72 (signal recognition particle 72), the record shows viability z-score, siRNA alone 0.936; inactive.
With knock-down of EPHB4 (EPH receptor B4) the results were viability z-score, siRNA alone -0.484; inactive.
Silencing of FGFRL1 (fibroblast growth factor receptor like 1) gave: viability z-score, siRNA alone 0.936; inactive.
Knock-down of DTYMK (deoxythymidylate kinase) resulted in: viability z-score, siRNA alone -0.546; inactive.
MAP2K6 (mitogen-activated protein kinase kinase 6) showed viability z-score, siRNA alone -1.2; inactive.
LMTK1 (lemur tail kinase 1) gave viability z-score, siRNA alone -0.965; inactive.
Knock-down of KSR1 (kinase suppressor of ras 1) gave: viability z-score, siRNA alone -1.19; inactive.
